The match of structure and compound is tentative.
Molecular target: APOL1 (Homo sapiens, UniProt O14791)
Assay: MultiTox-Fluor Multiplex Cytotoxicity Assay in tet-inducible APOL1 T-REx-HEK293 cells
Details: read-out: IP50 (i.e., IC50 for cell proliferation), 50 ng/mL tet, 24 hours, ratio of dead to live cells
Description: The MultiTox-Fluor Multiplex Cytotoxicity Assay is a single-reagent-addition, homogeneous, fluorescence assay that measures the number of live and dead cells simultaneously in culture wells. The assay measures cell viability and cytotoxicity by detecting two distinct protease activities. The live-cell protease activity is restricted to intact viable cells and is measured using a fluorogenic, cell-permeant peptide glycyl-phenylalanylamino fluorocoumarin (GF-AFC) substrate. The substrate enters intact cells, where it is cleaved to generate a fluorescent signal proportional to the number of living cells. […]
Briefly, the tet-inducible transgenic APOL1 T-REx-HEK293 cell lines were incubated with 50 ng/mL tet to induce APOL1 in the presence of 3-(2-(4-fluorophenyl)-1H-indol-3-yl)-N-((3S,4R)-4-hydroxy-2-oxopyrrolidin-3-yl)propenamide at 10.03, 3.24, 1.13, 0.356, 0.129, 0.042, 0.129, 0.0045, 0.0015, 0.0005 μM in duplicate for 24 hours in a humidified 37° C. incubator. […] The plate was read on the EnVision plate reader. A ratio of dead to live cells was used to normalize, and data was imported, analyzed, and fit using Genedata Screener (Basel, Switzerland) software. […]
Assay ready plates from the Global Compound Archive were ordered using template 384_APOL1Cell_DR10n2_50 uM_v3. […]

Sequences of proteins named here, by UniProt entry; tags and fusion partners are left off.
UniProt O14791, whole entry S342G/I384M: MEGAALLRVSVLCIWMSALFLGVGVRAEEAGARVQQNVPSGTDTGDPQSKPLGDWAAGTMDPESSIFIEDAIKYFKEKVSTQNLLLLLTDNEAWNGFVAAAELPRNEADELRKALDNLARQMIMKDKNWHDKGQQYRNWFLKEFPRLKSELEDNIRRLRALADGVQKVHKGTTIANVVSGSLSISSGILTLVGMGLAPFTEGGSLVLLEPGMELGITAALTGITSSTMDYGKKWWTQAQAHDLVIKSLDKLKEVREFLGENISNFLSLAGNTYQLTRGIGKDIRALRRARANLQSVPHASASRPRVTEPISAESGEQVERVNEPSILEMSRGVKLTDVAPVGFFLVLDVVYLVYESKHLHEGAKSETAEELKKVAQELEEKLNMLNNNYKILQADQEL

## CCc1cc2c(s1)CCO[C@]21CCN[C@H](c2cnn(C)c2)C1
  IC50: < 100 nM
